PMC5260874
No constants are given. Whether binding was seen depends on the method and setting. Binding seen in cells or lysates may run through a third protein. Some results given as binding are weak or reduced against the parent protein; the word gives no strength.

Amino acid sequences for entries named in this document (tags omitted). Residues count along the entry.
UniProt P37173, residues 23-567: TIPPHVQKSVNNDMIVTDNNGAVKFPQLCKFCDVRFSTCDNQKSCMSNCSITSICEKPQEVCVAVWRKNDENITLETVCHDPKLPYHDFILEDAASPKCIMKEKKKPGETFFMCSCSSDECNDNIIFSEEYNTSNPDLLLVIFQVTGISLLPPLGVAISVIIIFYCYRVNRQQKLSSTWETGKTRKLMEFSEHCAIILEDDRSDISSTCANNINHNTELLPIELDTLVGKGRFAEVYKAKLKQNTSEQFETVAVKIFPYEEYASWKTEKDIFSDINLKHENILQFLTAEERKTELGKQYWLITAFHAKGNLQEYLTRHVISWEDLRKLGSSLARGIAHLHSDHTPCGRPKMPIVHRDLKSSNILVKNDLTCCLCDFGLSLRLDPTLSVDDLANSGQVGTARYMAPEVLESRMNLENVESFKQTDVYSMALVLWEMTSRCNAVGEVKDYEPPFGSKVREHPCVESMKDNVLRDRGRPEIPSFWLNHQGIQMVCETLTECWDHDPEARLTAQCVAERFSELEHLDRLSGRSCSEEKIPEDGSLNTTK
UniProt P51784: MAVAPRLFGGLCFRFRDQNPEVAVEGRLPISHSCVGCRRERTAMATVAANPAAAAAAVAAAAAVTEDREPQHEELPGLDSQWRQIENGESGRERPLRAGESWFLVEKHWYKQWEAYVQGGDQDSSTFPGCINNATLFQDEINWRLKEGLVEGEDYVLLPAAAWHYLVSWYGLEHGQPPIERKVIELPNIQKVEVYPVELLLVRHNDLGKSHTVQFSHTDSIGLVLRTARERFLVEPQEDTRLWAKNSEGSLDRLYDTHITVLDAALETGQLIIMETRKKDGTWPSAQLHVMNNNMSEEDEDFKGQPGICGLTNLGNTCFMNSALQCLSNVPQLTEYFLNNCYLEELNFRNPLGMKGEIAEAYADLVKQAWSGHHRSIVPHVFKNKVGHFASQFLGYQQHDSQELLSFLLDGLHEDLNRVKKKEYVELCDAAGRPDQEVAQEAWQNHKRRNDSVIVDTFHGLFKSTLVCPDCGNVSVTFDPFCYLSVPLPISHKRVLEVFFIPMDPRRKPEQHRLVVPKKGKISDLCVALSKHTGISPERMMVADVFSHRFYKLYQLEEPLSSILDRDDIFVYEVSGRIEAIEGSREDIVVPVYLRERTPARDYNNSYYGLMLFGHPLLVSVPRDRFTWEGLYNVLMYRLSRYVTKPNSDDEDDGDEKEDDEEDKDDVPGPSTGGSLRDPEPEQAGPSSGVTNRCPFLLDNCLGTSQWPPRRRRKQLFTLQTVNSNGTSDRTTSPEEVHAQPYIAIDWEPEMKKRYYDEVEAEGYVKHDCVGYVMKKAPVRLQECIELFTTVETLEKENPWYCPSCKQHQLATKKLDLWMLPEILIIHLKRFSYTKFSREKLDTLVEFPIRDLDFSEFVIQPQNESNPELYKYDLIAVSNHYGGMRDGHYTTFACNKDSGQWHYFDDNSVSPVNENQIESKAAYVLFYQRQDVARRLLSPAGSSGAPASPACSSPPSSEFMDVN

Target: TGFβ-1 receptor II (TβRII), endogenous (human (endogenous in MRC5)) (UniProt P37173)
Test: co-IP; untreated MRC5 cell lysates, immunoprecipitation with IgG or a TβRII antibody overnight at 4 °C, agarose beads, washed three times in PBS, USP11 and TβRI immunoblotting; endogenous proteins

- binding: binds
Substance: USP11, endogenous (from UniProt P51784 1-963) (enzyme)
